# About 4,000 (1%) of roughly 390,000 compounds were called active. Inconclusive results, whose numbers are uncertain, are shown with a selection of clear calls. Calls come from the whole dose curve; as a rule, active = well fitted inhibition curve with a large enough effect; inconclusive = small, poorly fitted or top-dose-only effect, or another doubt; inactive = no such curve, though single readings can be large or run the other way. A potency beside an inconclusive call is a rough fit, not a confirmed value.
# Protein sequences, listed by entry. Tags and fused reporters are not part of them. Lines headed by an entry give the natural chain unless they say otherwise; changes in a name come on top.
# UniProt Q9UNA4: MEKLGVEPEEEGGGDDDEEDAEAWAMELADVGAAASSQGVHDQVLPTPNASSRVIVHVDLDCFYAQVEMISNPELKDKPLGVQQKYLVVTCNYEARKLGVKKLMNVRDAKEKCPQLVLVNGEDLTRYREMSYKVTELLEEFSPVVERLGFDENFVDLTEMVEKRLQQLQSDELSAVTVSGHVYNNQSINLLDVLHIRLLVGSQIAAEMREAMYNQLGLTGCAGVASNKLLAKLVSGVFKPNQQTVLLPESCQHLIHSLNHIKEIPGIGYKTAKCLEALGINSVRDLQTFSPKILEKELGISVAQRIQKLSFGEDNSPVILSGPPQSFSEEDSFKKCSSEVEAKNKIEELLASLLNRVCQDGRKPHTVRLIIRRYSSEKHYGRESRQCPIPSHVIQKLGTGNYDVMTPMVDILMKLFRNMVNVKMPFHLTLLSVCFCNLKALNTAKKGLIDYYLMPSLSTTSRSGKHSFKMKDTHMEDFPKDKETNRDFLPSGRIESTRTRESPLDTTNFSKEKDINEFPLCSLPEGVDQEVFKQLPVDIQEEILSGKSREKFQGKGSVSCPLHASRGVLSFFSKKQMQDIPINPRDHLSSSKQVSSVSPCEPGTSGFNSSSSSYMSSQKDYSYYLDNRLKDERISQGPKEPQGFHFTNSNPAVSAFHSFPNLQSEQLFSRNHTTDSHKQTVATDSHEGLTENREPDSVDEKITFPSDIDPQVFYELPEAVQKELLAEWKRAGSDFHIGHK
# Target: DNA polymerase iota (Homo sapiens) (UniProt Q9UNA4)
# Test: qHTS for Inhibitors of Polymerase Iota
# Settings: Pol iota fluorescent replication assay, 10 min; series mostly up to 115 µM; activity, negative = inhibition: at the top concentration
# Procedure, shortened: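 Pol iota at 10 nM preincubated 15 min with compounds at room temperature; reaction started with fluorescent substrate, 50 nM final. Fluorescence read kinetically at 0 and 10 min; buffer-only wells as negative control.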
# Potency is the fitted concentration of half-maximal effect.
Structure (SMILES),Potency,"activity, negative = inhibition"
CC1=C(C(N)=O)C(c2ccccn2)n2nc(SCc3ccccc3)nc2N1 (stereo not given),"inconclusive: 20 µM [inhibitor, single point]",
Cc1cccc(Cn2c(CN3CCCC(C)C3)nc3c2c(=O)n(C)c(=O)n3C)c1 (stereo not given),,inactive: -4.77%
O=C(/C=C/c1ccco1)NC(=S)Nc1ccc(Cl)cn1,"inconclusive: 20 µM [inhibitor, full curve, poor fit]",
O=[N+]([O-])c1ccc(-[n+]2ccc3ccccc3c2)c([N+](=O)[O-])c1,"inconclusive: 25.1 µM [inhibitor, full curve]",
Cc1nc(NCCOc2ccccc2)sc1C(=O)Nc1ccccc1,"inconclusive: 17.8 µM [inhibitor, single point]",
COc1cc(NC(=S)N2CCC(C(O)(c3ccccc3)c3ccccc3)CC2)cc(OC)c1,,inactive: -0.21%
O=C(COC(=O)c1cc(S(=O)(=O)N2CCc3ccccc3C2)ccc1Cl)NCc1ccco1,"inconclusive: 31.6 µM [inhibitor, partial curve, poor fit]",
COc1ccc(OC)c(S(=O)(=O)N2CCC(C(=O)NCc3cccnc3)CC2)c1,,inactive: 42.3%
O=S(=O)(c1ccc(NC2CCCCC2)cc1)N1CCOCC1,"inconclusive: 35.5 µM [inhibitor, single point]",
COc1cccc(-c2nnc(SCC(=O)Nc3ccc(S(N)(=O)=O)cc3)n2C)c1,"inconclusive: 20 µM [inhibitor, full curve, poor fit]",
Cc1ccc(NC(=O)CCc2nc3cccnc3n2-c2ccccc2)cc1Cl,"inconclusive: 28.2 µM [inhibitor, single point]",
COc1ccc(-c2csc3nc(-c4ccc(C)cc4)oc(=O)c23)cc1OC,"inconclusive: 89.1 µM [inhibitor, single point]",
COc1ccc(N=Cc2oc3ccc4ccccc4c3c2O)cc1,"inconclusive: 50.1 µM [inhibitor, partial curve, poor fit]",
CCCCN(C)c1nnc(NC(=O)Nc2ccc(Br)c(C)c2)s1,,inactive: 59.7%
COc1cc(NC(=O)COc2ccccc2[N+](=O)[O-])ccc1NC(=O)c1cccs1,"inconclusive: 10 µM [inhibitor, full curve, poor fit]",
Cc1ccc(-c2nnn(CC(=O)N(c3ccccc3)C(C(=O)NC(C)(C)C)c3cccs3)n2)o1 (stereo not given),"inconclusive: 25.1 µM [inhibitor, full curve, poor fit]",
CCOC(=O)c1ccc(NC(=O)CSc2ncc(S(=O)(=O)c3ccc(C)c(Cl)c3)c(=O)[nH]2)cc1,"inconclusive: 89.1 µM [inhibitor, partial curve]",
Cc1[nH]n(-c2ccccc2)c(=O)c1C=Nc1ccc(S(=O)(=O)Nc2nccs2)cc1,"inconclusive: 22.4 µM [inhibitor, partial curve]",
Cc1c(C(=O)O)cccc1-c1ccc(/C=N/Nc2ccc(Br)cc2)o1,"inconclusive: 31.6 µM [inhibitor, full curve]",
CCn1nnnc1SCC(=O)N1CCN(c2ccccc2)CC1,"inconclusive: 17.8 µM [inhibitor, full curve, poor fit]",
O=C(C1CC(=O)N(c2ccc(F)cc2)C1)N1CCCCCC1 (stereo not given),"inconclusive: 100 µM [inhibitor, partial curve, poor fit]",
CC1CCN(S(=O)(=O)c2nnc(NC(=O)c3ccccc3Br)s2)CC1,"inconclusive: 0.708 µM [inhibitor, partial curve, poor fit]",

# Looked up above.
# Value of `Cc1nc(NCCOc2ccccc2)sc1C(=O)Nc1ccccc1` under Potency: inconclusive: 17.8 µM [inhibitor, single point]
# Value of `Cc1ccc(NC(=O)CCc2nc3cccnc3n2-c2ccccc2)cc1Cl` under Potency: inconclusive: 28.2 µM [inhibitor, single point]
# Value of `Cc1cccc(Cn2c(CN3CCCC(C)C3)nc3c2c(=O)n(C)c(=O)n3C)c1` (stereo not given) under activity, negative = inhibition: inactive: -4.77%
# Value of `Cc1[nH]n(-c2ccccc2)c(=O)c1C=Nc1ccc(S(=O)(=O)Nc2nccs2)cc1` under Potency: inconclusive: 22.4 µM [inhibitor, partial curve]

# Next part.

Structure (SMILES),Potency,"activity, negative = inhibition"
CCOC(=O)c1sc2nc3c(SCC(=O)O)cc(C(=O)c4ccccc4O)cn3c(=O)c2c1C,"inconclusive: 3.98 µM [inhibitor, full curve, poor fit]",
CCN(CC)C(=O)CC(c1ccccc1)c1ccco1 (stereo not given),,inactive: -8.31%
Cc1ccccc1C(=O)NCc1nc(-c2ccc(Cl)cc2)no1,,inactive: 2.79%
Cc1ccc(C)c(Cn2c(=O)cc(C(F)(F)F)c3c(C)nn(C)c32)c1,,inactive: 32.4%
CCOC(=O)C1=C(CCl)NC(=O)NC1c1ccc2c(c1)OCO2 (stereo not given),"inconclusive: 25.1 µM [inhibitor, full curve]",
O=C(Nc1ccccc1)N1CCNCC1,"inconclusive: 5.62 µM [inhibitor, partial curve, poor fit]",
O=C(NCCN1CCOCC1)c1cc2n(n1)C(C(F)(F)F)CC(c1ccc(F)cc1)N2 (stereo not given),"inconclusive: 79.4 µM [inhibitor, partial curve, poor fit]",
Cc1cccc(NC(=O)Cn2nnc(C(=O)NCc3cccs3)c2N)c1,"inconclusive: 89.1 µM [inhibitor, single point]",
O=C(Nc1ccc(-c2nc3ccccc3o2)cc1)c1cc(-n2cnnc2)ccc1Cl,,inactive: -173%
Cc1c(N=C2C=CC(=O)c3ccccc32)c(=O)n(-c2ccccc2)n1C,"inconclusive: 3.98 µM [inhibitor, full curve, poor fit]",
COC(=O)Cc1cc(C)cc2c(=O)cc(-c3ccoc3)oc12,"inconclusive: 50.1 µM [inhibitor, partial curve, poor fit]",
Cc1ccc(NC(=O)c2c(C)nc3sc(C(=O)Nc4ccc(F)cc4)c(N)c3c2-c2ccc(Cl)cc2)c(C)c1,,inactive: 24.6%
Cc1nc(-c2cccc(NC(=O)C(C)Oc3ccccc3)c2)cs1 (stereo not given),"inconclusive: 28.2 µM [inhibitor, partial curve, poor fit]",
Cc1ccc(-c2nnc3ccccc3c2C(=O)Nc2ccc(C)c(F)c2)cc1,,inactive: 2.12%
CCOc1ccccc1C(=O)Nc1ccc(-n2nncc2-c2ccccc2)cc1,"inconclusive: 89.1 µM [inhibitor, partial curve, poor fit]",
O=C(CSc1nc(-c2ccccc2)nc2ccc(F)cc12)Nc1cccc(C(=O)O)c1,"inconclusive: 22.4 µM [inhibitor, full curve]",
O=C1NC(=S)S/C1=C\c1ccc(SCc2ccco2)o1,"inconclusive: 1.58 µM [inhibitor, full curve, poor fit]",
O=C(NCc1ccc(Cl)cc1)c1ccc2c(c1)NC(=O)C(CS(=O)(=O)Cc1ccc(F)cc1Cl)N2 (stereo not given),,inactive: -21.3%
Cc1ccc(NC(=O)Cn2nnc(C(=O)NCCc3ccccc3)c2N)cc1,"inconclusive: 79.4 µM [inhibitor, single point]",
COc1cc(/C=C2/C(=O)NN(c3ccc(Cl)c(Cl)c3)C2=O)cc([N+](=O)[O-])c1O,active: 17.8 µM,
CCC1NC(=S)N(C2CCCCC2)C1=O (stereo not given),,inactive: 5.12%
CCC(C)Sc1oc(-c2ccco2)nc1S(=O)(=O)c1ccc(Cl)cc1 (stereo not given),"inconclusive: 39.8 µM [inhibitor, single point]",

Structure (SMILES),Potency,"activity, negative = inhibition"
CCC/C=C1/CCCOC(C(=O)NCCN2CCOCC2)(C(F)(F)F)C1 (stereo not given),"inconclusive: 10 µM [inhibitor, partial curve, poor fit]",
O=C(CNC(=O)c1ccc(S(=O)(=O)N2CCCCC2)cc1)N/N=C/c1ccco1,"inconclusive: 79.4 µM [inhibitor, partial curve, poor fit]",
O=C(CCN1CCN(CCO)CC1)Nc1ccc(Br)cc1,"inconclusive: 89.1 µM [inhibitor, single point]",
Cc1onc(-c2ccccc2)c1C(=O)NCCc1ccncc1,"inconclusive: 100 µM [inhibitor, single point]",
NS(=O)(=O)c1ccc(N2CCN(S(=O)(=O)Cc3ccccc3)CC2)nc1,"inconclusive: 12.6 µM [inhibitor, partial curve, poor fit]",
CCC(=O)N1CCC2(CC1)Oc1ccc(Cl)cc1C(=O)C21CC(c2ccccc2)=NO1 (stereo not given),"inconclusive: 15.8 µM [inhibitor, full curve, poor fit]",
O=[N+]([O-])c1ccc(Cl)c(-c2ccc(/C=N/n3cnnc3)o2)c1,"inconclusive: 44.7 µM [inhibitor, partial curve]",
CC(=O)Nc1cc(NC(C)=O)cc(C(=O)OCC(=O)c2ccc3c(c2)OCO3)c1,"inconclusive: 28.2 µM [inhibitor, partial curve, poor fit]",
COc1ccc(CC(=O)OCc2cc3ccc(C)cc3[nH]c2=O)cc1,"inconclusive: 3.16 µM [inhibitor, partial curve, poor fit]",
Cc1cc(C(=O)CCl)c(C)n1-c1ccon1,"inconclusive: 28.2 µM [inhibitor, single point]",
CCc1ccc(/C=C2/SC(N3CCOCC3)=NC2=O)cc1,,inactive: 39.6%
Cc1ccccc1NC(=O)c1nc(S(C)(=O)=O)ncc1N(Cc1ccco1)Cc1sccc1C,,inactive: 13.1%
Cc1ccc(S(=O)(=O)c2cn(Cc3ccccc3)c3cc(N4CCCC4)c(F)cc3c2=O)cc1,,inactive: 6.27%
N#Cc1c(-c2ccco2)cc(-c2ccc(F)cc2)nc1N,"inconclusive: 35.5 µM [inhibitor, partial curve, poor fit]",
CCC1CCCCN1C(=O)CSc1nnc(-c2c[nH]c3ccccc23)o1 (stereo not given),"inconclusive: 79.4 µM [inhibitor, single point]",
CC(O)CNc1nc2c(c(=O)n(Cc3ccccc3)c(=O)n2C)n1C (stereo not given),,inactive: 51.1%
COC(=O)c1ccc(CS(=O)(=O)c2ccc(C)cc2)o1,"inconclusive: 25.1 µM [inhibitor, full curve, poor fit]",
CCOC(=O)C1=C(C)NC(=O)NC1c1c(C)nn(-c2ccccc2)c1Cl (stereo not given),"inconclusive: 2.51 µM [inhibitor, full curve, poor fit]",
CCc1ccc(NC(=O)C2=C(C)C(=O)OC23CCCCC3)cc1,,inactive: 23.1%
CCOc1ccc(S(=O)(=O)N2CCCCC2)c2ccccc12,"inconclusive: 7.08 µM [inhibitor, single point]",
COc1ccc(C(CC(=O)c2ccc(O)cc2)S(=O)(=O)c2ccc(C)cc2)cc1 (stereo not given),"inconclusive: 39.8 µM [inhibitor, partial curve, poor fit]",

# Source: PubChem BioAssay AID588590 (National Center for Advancing Translational Sciences (NCATS), 2011)
